Experimental data: US12371410B2, “Isoxazoline compounds and use thereof” (METISA BIOTECHNOLOGY CO., LTD, priority 2019, dated 2025)
Some entries share one result that the patent states for a list of compounds.

Columns and labels:
cat fleas = assay: Insecticidal test against cat fleas, compound film in culture dish; assay type: in vivo; details: dose of 1 mg/cm^2 (400 μL of 100 ppm acetone solution on 40 cm^2), adult cat fleas, after 72 hours, 25° C.
American dog ticks = assay: Insecticidal test against American dog ticks, compound film in culture dish; assay type: in vivo; details: dose of 1 μg/cm^2, level 1 nymph, after 24 hours, 25° C.

Compound | mortality of insects (cat fleas) (cat fleas) | mortality of insects (American dog ticks) (American dog ticks)
Cc1cc(C2=NOC(c3cc(Cl)c(F)c(Cl)c3)(C(F)(F)F)C2)ccc1C(=O)N(CC(=O)NCC(F)(F)F)C(=O)C1CC1 (stereo not drawn) [Compound 2] | more than 90% | more than 90%
CCOCC(=O)N(CC(=O)NCC(F)(F)F)C(=O)c1ccc(C2=NOC(c3cc(Cl)cc(Cl)c3)(C(F)(F)F)C2)cc1C (stereo not drawn) [Compound 21] | more than 90% | more than 90%
Cc1cc(C2=NOC(c3cc(Cl)cc(Cl)c3)(C(F)(F)F)C2)ccc1C(=O)N(CC(=O)NCC(F)(F)F)C(=O)C1CC1 (stereo not drawn) [Compound 1] | more than 90% | more than 90%
COCC(=O)N(CC(=O)NCC(F)(F)F)C(=O)c1ccc(C2=NOC(c3cc(Cl)cc(Cl)c3)(C(F)(F)F)C2)cc1C (stereo not drawn) [Compound 19] | more than 90% | more than 90%
CCOCCC(=O)N(CC(=O)NCC(F)(F)F)C(=O)c1ccc(C2=NOC(c3cc(Cl)cc(Cl)c3)(C(F)(F)F)C2)cc1C (stereo not drawn) [Compound 33] | more than 90% | more than 90%
CCCCOCC(=O)N(CC(=O)NCC(F)(F)F)C(=O)c1ccc(C2=NOC(c3cc(Cl)cc(Cl)c3)(C(F)(F)F)C2)cc1C (stereo not drawn) [Compound 27] | more than 90% | more than 90%
COCCC(=O)N(CC(=O)NCC(F)(F)F)C(=O)c1ccc(C2=NOC(c3cc(Cl)cc(Cl)c3)(C(F)(F)F)C2)cc1C (stereo not drawn) [Compound 31] | more than 90% | more than 90%
CCOCC(=O)N(CC(=O)NCC(F)(F)F)C(=O)c1ccc(C2=NOC(c3cc(Cl)c(F)c(Cl)c3)(C(F)(F)F)C2)cc1C (stereo not drawn) [Compound 22] | more than 90% | more than 90%
CCOCCC(=O)N(CC(=O)NCC(F)(F)F)C(=O)c1ccc(C2=NOC(c3cc(Cl)c(F)c(Cl)c3)(C(F)(F)F)C2)cc1C (stereo not drawn) [Compound 34] | more than 90% | more than 90%
